PubChem BioAssay AID1259254 | NCATS – 2017
Shown is an unselected part of about 59,000 reagents. Of all reagents, about 1,550 (2.6%) got an active call. 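G2 share is only a proxy for re-replication; each gene was hit by three separate siRNAs, and active genes were retested.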 A number with no mark means an inactive call. Not all columns of the deposit are shown. Not given: the amount of reagent.

Assay: 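Genome-wide screen for genes that prevent DNA re-replication in cancer cells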 (primary screen)
System: human HCT116 colorectal cancer cells
Reagents: single siRNA against human genes
Timing: 3 days
Measured: 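Imaged Hoechst DNA stain sorts each cell into a cycle phase by DNA amount; per plate, G2 fraction set to 0% for non-targeting and 100% for GMNN siRNA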
Reading the numbers: G2 robust z-score: higher = more G2 cells, more excess DNA replication
Active means: 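Active siRNAs have a G2 robust z of 5 or more median absolute deviations over the median, which in these data means about 38% or higher of GMNN control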

For USP40 (ubiquitin specific peptidase 40) [SID160743294], the values are G2 robust z-score -0.613.
With knock-down of USP40 (ubiquitin specific peptidase 40) [SID160743295] the results were G2 robust z-score 0.737.
With knock-down of USP40 (ubiquitin specific peptidase 40) [SID160743296], the record shows G2 robust z-score -0.934.
With knock-down of RBBP4 (RB binding protein 4, chromatin remodeling factor) [SID160715708] the results were G2 robust z-score 2.65.
With knock-down of RBBP4 (RB binding protein 4, chromatin remodeling factor) [SID160715709] the results were G2 robust z-score 1.87.
RBBP4 (RB binding protein 4, chromatin remodeling factor) [SID160715710] showed G2 robust z-score -0.699.

2 entries from above, set out differently:
{"target": "RBBP4 (RB binding protein 4, chromatin remodeling factor)", "PubChem SID": "SID160715708", "G2 robust z-score": 2.65}
{"target": "RBBP4 (RB binding protein 4, chromatin remodeling factor)", "PubChem SID": "SID160715709", "G2 robust z-score": 1.87}

More reagents:
For RASAL2 (RAS protein activator like 2) [SID160722267], the entry reads G2 robust z-score 1.75.
RASAL2 (RAS protein activator like 2) [SID160722268] gave G2 robust z-score 1.39.
Against RASAL2 (RAS protein activator like 2) [SID160722269], the values are G2 robust z-score 2.3.
With knock-down of IZUMO1R (IZUMO1 receptor, JUNO) [SID160725254] the results were G2 robust z-score 0.235.
Against IZUMO1R (IZUMO1 receptor, JUNO) [SID160725255], the values are G2 robust z-score -0.948.
Depletion of IZUMO1R (IZUMO1 receptor, JUNO) [SID160766460] gave: G2 robust z-score -0.157.
